Source: patent US20120208746A1, “GENETIC MARKERS ASSOCIATED WITH RESPONSE TO CYCLOPHILIN-BINDING COMPOUNDS” (priority 2011, published 2012)
Some of these results come from one statement about several compounds together.

What was measured:
[1] = system: IFNλ1; assay: IFNλ1 in supernatants of subgenomic con1b HuH7 cells; assay type: cell-based, human; settings: SCY-635 2 μM or IFNα-2b 50 U/ml, background level, no change over time
[2] = system: IFNβ; assay: IFNβ in supernatants of subgenomic con1b HuH7 and parental HuH7 cells; assay type: cell-based, human; settings: all supernatants; SCY-635 2 μM or IFNα-2b 50 U/ml; limit of detection 25 pg/ml

## C/C=C/C[C@@H](C)[C@@H](O)[C@H]1C(=O)N[C@@H](CC)C(=O)N(C)[C@H](SCCN(C)C)C(=O)N(C)[C@@H](CC(C)(C)O)C(=O)N[C@@H](C(C)C)C(=O)N(C)[C@@H](CC(C)C)C(=O)N[C@@H](C)C(=O)N[C@H](C)C(=O)N(C)[C@@H](CC(C)C)C(=O)N(C)[C@@H](CC(C)C)C(=O)N(C)[C@@H](C(C)C)C(=O)N1C [SCY-635, 3-[(R)-2-(N,N-dimethylamino)ethylthio-Sar]-4-(gamma-hydroxymethylleucine)cyclosporin]
[1]
  levels of IFNλ1 in cell supernatants: ≤ 31.2 pg/mL
[2]
  IFNβ levels in cell supernatants: < 25 pg/mL
